Results deposited as PubChem BioAssay AID686938 (Drosophila RNAi Screening Center, 2013)

Purpose: 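Knock-downs reducing store-operated calcium influx in Drosophila cells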 (primary screen)
Cells: Drosophila S2R+ cells
Reagent: long dsRNA against Drosophila genes, about 0.25 µg dsRNA per well, roughly 10,000 cells
Duration: 5 days of knock-down before the calcium assay
Treatment: thapsigargin (SERCA pump blocker) to empty calcium stores; entry signal taken 4 min after adding it
Measured: 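Per-well fluo-4 fluorescence in two replicates, unnormalised, measured in resting cells and 4 min after store depletion by the SERCA blocker thapsigargin; ratio of the two present in few wells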
Direction: calcium entry signal: higher = stronger calcium signal after store depletion; entry to resting ratio: higher = more calcium entry relative to resting level; resting calcium signal: higher = higher resting calcium signal
Units: calcium entry signal in fluorescence units; resting calcium signal in fluorescence units
Rule for the call: 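Called when the plate z-score of the entry-to-rest ratio, mean of duplicates, falls below −3; wells with low overall dye signal (Fmax z below −2) or more than five off-targets excluded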
Calls: active = strongly reduced calcium entry; inactive = no strong reduction
The screen tested about 23,000 reagents; this is a random part of those that have a named target and a result. In the full data, 75 (0.33%) got an active call. 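Raw plate signals without normalisation; calls rest on plate z-scores that were not deposited; ratio present for only 364 wells.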 The record does not give: the dose of the treatment.

CG14932 [DRSC02414] showed calcium entry signal, replicate 1 = 3.23e7; calcium entry signal, replicate 2 = 4.36e7; resting calcium signal, replicate 1 = 1.91e7; resting calcium signal, replicate 2 = 1.93e7; inactive.
Depletion of CG14879 [DRSC15003] came out at: calcium entry signal, replicate 1 = 3.61e7; calcium entry signal, replicate 2 = 5.01e7; resting calcium signal, replicate 1 = 1.84e7; resting calcium signal, replicate 2 = 7.54e7; inactive.
Silencing of CG7295 [DRSC00699] came out at: calcium entry signal, replicate 1 = 2.99e7; calcium entry signal, replicate 2 = 3.02e7; resting calcium signal, replicate 1 = 1.39e7; resting calcium signal, replicate 2 = 1.39e7; inactive.
Against arx [DRSC10386], the entry reads calcium entry signal, replicate 1 = 3.15e7; calcium entry signal, replicate 2 = 4.35e7; resting calcium signal, replicate 1 = 1.52e7; resting calcium signal, replicate 2 = 2.95e7; inactive.
After knock-down of CG9759 [DRSC16558] the results were calcium entry signal, replicate 1 = 3.21e7; calcium entry signal, replicate 2 = 4.22e7; resting calcium signal, replicate 1 = 1.52e7; resting calcium signal, replicate 2 = 1.79e7; inactive.
Knock-down of Cyp6a21 [DRSC07381] gave: calcium entry signal, replicate 1 = 3.72e7; calcium entry signal, replicate 2 = 4.39e7; resting calcium signal, replicate 1 = 1.86e7; resting calcium signal, replicate 2 = 2.09e7; inactive.
Against tra2 [DRSC07708] the deposit lists calcium entry signal, replicate 1 = 4.21e7; calcium entry signal, replicate 2 = 4.76e7; resting calcium signal, replicate 1 = 1.74e7; resting calcium signal, replicate 2 = 2.24e7; inactive.
Sk1 [DRSC19774] showed calcium entry signal, replicate 1 = 2.15e7; calcium entry signal, replicate 2 = 2.76e7; resting calcium signal, replicate 1 = 1.25e7; resting calcium signal, replicate 2 = 1.36e7; inactive.
Depletion of COX5A [DRSC16611] resulted in: calcium entry signal, replicate 1 = 5.31e7; calcium entry signal, replicate 2 = 4.35e7; resting calcium signal, replicate 1 = 2.64e7; resting calcium signal, replicate 2 = 2.07e7; inactive.
Knock-down of CG8630 [DRSC16441] resulted in: calcium entry signal, replicate 1 = 2.51e7; calcium entry signal, replicate 2 = 3.80e7; resting calcium signal, replicate 1 = 1.47e7; resting calcium signal, replicate 2 = 5.47e7; inactive.
CG12848 [DRSC04128] showed calcium entry signal, replicate 1 = 5.26e7; calcium entry signal, replicate 2 = 4.92e7; resting calcium signal, replicate 1 = 2.31e7; resting calcium signal, replicate 2 = 2.15e7; inactive.

2 entries from above, set out differently:
gene | DRSC id | calcium entry signal, replicate 1 | calcium entry signal, replicate 2 | entry to resting ratio | resting calcium signal, replicate 1 | resting calcium signal, replicate 2 | activity call
CG9759 | DRSC16558 | 3.21e7 | 4.22e7 | – | 1.52e7 | 1.79e7 | inactive
Cyp6a21 | DRSC07381 | 3.72e7 | 4.39e7 | – | 1.86e7 | 2.09e7 | inactive

The results go on:
CG14767 [DRSC06500] showed calcium entry signal, replicate 1 = 4.13e7; calcium entry signal, replicate 2 = 4.37e7; resting calcium signal, replicate 1 = 1.74e7; resting calcium signal, replicate 2 = 2.00e7; inactive.
After knock-down of CG12384 [DRSC06145], the screen gave calcium entry signal, replicate 1 = 2.54e7; calcium entry signal, replicate 2 = 3.20e7; resting calcium signal, replicate 1 = 1.17e7; resting calcium signal, replicate 2 = 1.63e7; inactive.
For CG3603 [DRSC18317], the entry reads calcium entry signal, replicate 1 = 5.10e7; calcium entry signal, replicate 2 = 6.36e7; entry to resting ratio 2.2; resting calcium signal, replicate 1 = 2.32e7; resting calcium signal, replicate 2 = 2.53e7; inactive.
After knock-down of CG31064 [DRSC14756], the screen gave calcium entry signal, replicate 1 = 4.62e7; calcium entry signal, replicate 2 = 5.43e7; resting calcium signal, replicate 1 = 2.18e7; resting calcium signal, replicate 2 = 2.12e7; inactive.
For CG31064 [DRSC15941], the values are calcium entry signal, replicate 1 = 3.81e7; calcium entry signal, replicate 2 = 6.03e7; resting calcium signal, replicate 1 = 1.95e7; resting calcium signal, replicate 2 = 2.62e7; inactive.
Depletion of CG31064 [DRSC15942] resulted in: calcium entry signal, replicate 1 = 3.92e7; calcium entry signal, replicate 2 = 5.77e7; resting calcium signal, replicate 1 = 2.00e7; resting calcium signal, replicate 2 = 2.32e7; inactive.
After knock-down of CG31064 [DRSC15943] the results were calcium entry signal, replicate 1 = 2.90e7; calcium entry signal, replicate 2 = 5.07e7; resting calcium signal, replicate 1 = 1.64e7; resting calcium signal, replicate 2 = 2.31e7; inactive.
phtf [DRSC05023] scored calcium entry signal, replicate 1 = 3.61e7; resting calcium signal, replicate 1 = 1.63e7; inactive.
Mipp1 [DRSC11223] scored calcium entry signal, replicate 1 = 2.60e7; calcium entry signal, replicate 2 = 3.58e7; resting calcium signal, replicate 1 = 1.16e7; resting calcium signal, replicate 2 = 2.64e7; inactive.
For qua [DRSC03598], the values are calcium entry signal, replicate 1 = 5.27e7; calcium entry signal, replicate 2 = 3.51e7; resting calcium signal, replicate 1 = 2.32e7; resting calcium signal, replicate 2 = 1.59e7; inactive.
For nkt [DRSC10144], the entry reads calcium entry signal, replicate 1 = 3.25e7; calcium entry signal, replicate 2 = 5.07e7; resting calcium signal, replicate 1 = 1.69e7; resting calcium signal, replicate 2 = 2.05e7; inactive.
Knock-down of Usp16-45 [DRSC18352] came out at: calcium entry signal, replicate 1 = 2.46e7; calcium entry signal, replicate 2 = 2.42e7; resting calcium signal, replicate 1 = 1.11e7; resting calcium signal, replicate 2 = 1.22e7; inactive.
With knock-down of Gcat [DRSC09719] the results were calcium entry signal, replicate 1 = 2.50e7; calcium entry signal, replicate 2 = 3.13e7; resting calcium signal, replicate 1 = 1.26e7; resting calcium signal, replicate 2 = 1.32e7; inactive.
CG13053 [DRSC09934] showed calcium entry signal, replicate 1 = 2.99e7; calcium entry signal, replicate 2 = 5.22e7; resting calcium signal, replicate 1 = 1.61e7; resting calcium signal, replicate 2 = 2.26e7; inactive.
LysB [DRSC08673] scored calcium entry signal, replicate 1 = 3.18e7; calcium entry signal, replicate 2 = 2.89e7; resting calcium signal, replicate 1 = 1.54e7; resting calcium signal, replicate 2 = 1.45e7; inactive.
Silencing of RpL27A [DRSC00781] came out at: calcium entry signal, replicate 1 = 1.15e7; calcium entry signal, replicate 2 = 1.05e7; resting calcium signal, replicate 1 = 8.47e6; resting calcium signal, replicate 2 = 7.33e6; inactive.
